Some results were stated once for a whole list of compounds, not compound by compound. Some ranges recur; such a range may be that of the whole group of compounds.
Assay: Pharmacokinetics (PK) study in SD rat (IV, IP, PO; LC-MS/MS)
Type: in vivo
Conditions: single dose 2 mg/kg
Protocol: SD rat were used to study the PK of ALK PROTAD compounds. ALK PROTAD compounds SIAIS164008, SIAIS164018, SIAIS164023 and SIAIS151118 were administrated into SD rat via three different routes: IV (Intravenous Injection), IP (Intraperitoneal Injection) and PO ([…]). Blood samples at different sampling time points up to 24 hours post dosing were collected from each animal and analyzed with LC-MS/MS to calculate the PK for each chemical.

Time at which maximal peak levels were reached, 0.083 to 2 h:
COc1cc(N2CCC(NC(=O)CCCNc3cccc4c3C(=O)N(C3CCC(=O)NC3=O)C4=O)CC2)ccc1Nc1ncc(Cl)c(Nc2ccccc2P(C)(C)=O)n1 (stereo not shown) [SIAIS151118, N-(1-(4-((5-chloro-4-((2-(dimethylphosphoryl)phenyl)amino)pyrimidin-2-yl)amino)-3-methoxyphenyl)piperidin-4-yl)-4-((2-(2,6-dioxopiperidin-3-yl)-1,3-dioxoisoindolin-4-yl)amino)butanamide]
COc1cc(N2CCC(N3CCN(C(=O)CCOCCOCCNc4cccc5c4C(=O)N(C4CCC(=O)NC4=O)C5=O)CC3)CC2)ccc1Nc1ncc(Cl)c(Nc2ccccc2P(C)(C)=O)n1 (stereo not shown) [SIAIS164008, 4-((2-(2-(3-(4-(1-(4-((5-chloro-4-((2-(dimethylphosphoryl)phenyl)amino)pyrimidin-2-yl)amino)-3-methoxyphenyl)piperidin-4-yl)piperazin-1-yl)-3-oxopropoxy)ethoxy)ethyl)amino)-2-(2,6-dioxopiperidin-3-yl)isoindoline-1,3-dione]
COc1cc(N2CCC(N3CCN(C(=O)CNc4cccc5c4C(=O)N(C4CCC(=O)NC4=O)C5=O)CC3)CC2)ccc1Nc1ncc(Cl)c(Nc2ccccc2P(C)(C)=O)n1 (stereo not shown) [SIAIS164018, 4-((2-(4-(1-(4-((5-chloro-4-((2-(dimethylphosphoryl)phenyl)amino)pyrimidin-2-yl)amino)-3-methoxyphenyl)piperidin-4-yl)piperazin-1-yl)-2-oxoethyl)amino)-2-(2,6-dioxopiperidin-3-yl)isoindoline-1,3-dione]
COc1cc(N2CCC(N3CCN(C(=O)CCCCCCNc4cccc5c4C(=O)N(C4CCC(=O)NC4=O)C5=O)CC3)CC2)ccc1Nc1ncc(Cl)c(Nc2ccccc2P(C)(C)=O)n1 (stereo not shown) [SIAIS164023, 4-((7-(4-(1-(4-((5-chloro-4-((2-(dimethylphosphoryl)phenyl)amino)pyrimidin-2-yl)amino)-3-methoxyphenyl)piperidin-4-yl)piperazin-1-yl)-7-oxoheptyl)amino)-2-(2,6-dioxopiperidin-3-yl)isoindoline-1,3-dione]

Reference: patent US11771709B2, “ALK protein degradation agent and anti-tumor application thereof” (ShanghaiTech University, priority 2017, dated 2023)
